Measurements from patent US5789542A (Board of Supervisors of Louisiana State University and …, priority 1997, dated 1998).
Strings that start with PEPTIDE1 are HELM notation: dots part the residues, brackets hold end groups and non-standard residues.

Assay: solution-phase peptide synthesis; PAL-PS (peptide-amide linker polystyrene) for (KLAKLAK)3 and (KFAKFAK)3; polyethyleneglycol-polyamide linker on polystyr; pentafluorophenyl esters with HOBT in DMF
Settings: whole synthesis, overall

Substance: PEPTIDE1{K.L.A.K.K.L.A.K.L.A.K.K.L.A.[OMe]}$$$$V2.0
- isolated yield: approximately 5%
